Experimental data from article PMC3324469, “Preparation and Characterization of the Extracellular Domain of Human Sid-1” (PLoS ONE, 2012).
Results are given in words; binding and its absence hold for the method and conditions named. Binding seen in cells or lysates may run through a third protein. Binding can be weak; no strength is given.

Amino acid sequences for entries named in this document (tags omitted). A change or cut given only in a name is not applied to a line headed by its entry.
UniProt Q9GZC8: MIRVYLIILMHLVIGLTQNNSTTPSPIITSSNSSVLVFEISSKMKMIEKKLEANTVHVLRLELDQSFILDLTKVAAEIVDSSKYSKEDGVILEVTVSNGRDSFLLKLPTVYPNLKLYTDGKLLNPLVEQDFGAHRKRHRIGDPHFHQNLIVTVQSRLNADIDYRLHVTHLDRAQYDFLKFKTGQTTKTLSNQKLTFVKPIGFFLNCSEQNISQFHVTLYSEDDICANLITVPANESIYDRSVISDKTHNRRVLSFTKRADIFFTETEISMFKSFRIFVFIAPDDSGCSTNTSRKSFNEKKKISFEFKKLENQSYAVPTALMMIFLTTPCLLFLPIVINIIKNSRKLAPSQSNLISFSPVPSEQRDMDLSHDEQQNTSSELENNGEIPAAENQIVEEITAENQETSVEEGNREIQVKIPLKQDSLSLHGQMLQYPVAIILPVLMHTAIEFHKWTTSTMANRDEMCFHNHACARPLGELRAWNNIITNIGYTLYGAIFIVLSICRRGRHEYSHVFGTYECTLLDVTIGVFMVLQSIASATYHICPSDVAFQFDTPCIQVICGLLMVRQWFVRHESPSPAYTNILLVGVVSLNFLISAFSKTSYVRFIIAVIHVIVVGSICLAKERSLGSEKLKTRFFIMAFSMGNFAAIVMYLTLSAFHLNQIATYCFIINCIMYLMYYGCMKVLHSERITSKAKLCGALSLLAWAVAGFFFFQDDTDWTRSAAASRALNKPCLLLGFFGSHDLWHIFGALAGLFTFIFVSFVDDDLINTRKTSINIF
UniProt Q9NXL6: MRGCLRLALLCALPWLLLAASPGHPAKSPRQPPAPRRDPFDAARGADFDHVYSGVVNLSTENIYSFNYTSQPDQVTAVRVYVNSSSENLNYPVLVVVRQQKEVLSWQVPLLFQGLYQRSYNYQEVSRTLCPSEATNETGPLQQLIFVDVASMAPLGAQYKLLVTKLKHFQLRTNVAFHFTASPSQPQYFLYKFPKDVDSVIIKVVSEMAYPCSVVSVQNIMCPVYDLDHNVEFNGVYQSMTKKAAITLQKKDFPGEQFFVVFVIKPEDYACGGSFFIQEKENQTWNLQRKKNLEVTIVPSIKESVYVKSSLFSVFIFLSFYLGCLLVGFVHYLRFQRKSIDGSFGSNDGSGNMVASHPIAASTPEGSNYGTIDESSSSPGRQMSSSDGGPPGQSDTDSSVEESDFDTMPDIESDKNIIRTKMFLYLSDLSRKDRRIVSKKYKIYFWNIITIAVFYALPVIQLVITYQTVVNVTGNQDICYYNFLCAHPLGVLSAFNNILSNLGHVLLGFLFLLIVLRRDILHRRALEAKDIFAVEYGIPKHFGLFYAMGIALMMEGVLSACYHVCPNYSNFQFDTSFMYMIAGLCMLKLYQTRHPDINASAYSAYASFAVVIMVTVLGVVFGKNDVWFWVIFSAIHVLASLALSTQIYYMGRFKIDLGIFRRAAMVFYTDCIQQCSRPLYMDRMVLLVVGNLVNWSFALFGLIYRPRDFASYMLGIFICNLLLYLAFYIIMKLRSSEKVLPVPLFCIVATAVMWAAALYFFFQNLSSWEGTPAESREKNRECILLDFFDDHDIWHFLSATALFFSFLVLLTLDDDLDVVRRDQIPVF
UniProt Q8NBJ9: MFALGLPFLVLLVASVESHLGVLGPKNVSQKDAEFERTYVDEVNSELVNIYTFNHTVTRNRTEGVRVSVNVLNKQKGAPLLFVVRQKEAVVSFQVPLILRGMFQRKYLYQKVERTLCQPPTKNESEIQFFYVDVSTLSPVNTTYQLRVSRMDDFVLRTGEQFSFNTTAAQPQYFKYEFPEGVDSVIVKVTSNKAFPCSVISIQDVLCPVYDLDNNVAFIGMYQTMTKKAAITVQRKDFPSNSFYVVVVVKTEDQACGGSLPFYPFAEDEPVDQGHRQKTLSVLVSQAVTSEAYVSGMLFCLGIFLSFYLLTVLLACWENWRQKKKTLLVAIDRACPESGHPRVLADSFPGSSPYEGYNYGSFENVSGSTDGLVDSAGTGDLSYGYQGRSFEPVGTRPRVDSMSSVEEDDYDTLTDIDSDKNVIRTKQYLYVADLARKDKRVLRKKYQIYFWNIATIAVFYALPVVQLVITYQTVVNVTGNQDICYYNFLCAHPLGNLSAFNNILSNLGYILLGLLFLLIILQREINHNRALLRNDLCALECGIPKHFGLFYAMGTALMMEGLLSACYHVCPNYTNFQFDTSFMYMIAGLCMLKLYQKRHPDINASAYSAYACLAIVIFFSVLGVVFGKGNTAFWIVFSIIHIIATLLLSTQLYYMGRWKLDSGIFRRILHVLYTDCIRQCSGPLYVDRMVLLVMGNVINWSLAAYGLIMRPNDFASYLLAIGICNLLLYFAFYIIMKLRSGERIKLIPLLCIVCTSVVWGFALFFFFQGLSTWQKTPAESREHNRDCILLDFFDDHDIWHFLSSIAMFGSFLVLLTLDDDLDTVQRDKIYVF
UniProt P0A6F5: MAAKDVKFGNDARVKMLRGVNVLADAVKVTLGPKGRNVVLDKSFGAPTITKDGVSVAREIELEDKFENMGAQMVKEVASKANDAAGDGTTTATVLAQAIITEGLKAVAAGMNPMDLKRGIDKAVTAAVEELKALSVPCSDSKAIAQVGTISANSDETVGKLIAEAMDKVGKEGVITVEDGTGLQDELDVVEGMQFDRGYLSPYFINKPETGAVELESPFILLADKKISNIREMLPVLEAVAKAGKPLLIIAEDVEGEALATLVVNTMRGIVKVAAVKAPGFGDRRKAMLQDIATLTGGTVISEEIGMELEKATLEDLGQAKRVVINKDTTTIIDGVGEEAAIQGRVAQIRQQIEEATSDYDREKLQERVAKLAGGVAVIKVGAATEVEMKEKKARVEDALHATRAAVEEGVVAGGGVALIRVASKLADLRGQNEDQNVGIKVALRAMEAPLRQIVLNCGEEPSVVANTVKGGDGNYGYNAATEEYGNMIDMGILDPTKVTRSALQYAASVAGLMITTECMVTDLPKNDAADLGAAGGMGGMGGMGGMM

What was measured:
Test in all cases: co-purification; MBP-ECD fusions expressed in E. coli and purified; GroEL of the host found with them
[1] = molecular target: MBP fusion of the ECD of C. elegans Sid-1 (NP_504372), made in E. coli (C. elegans) (UniProt Q9GZC8)
[2] = molecular target: MBP fusion of the ECD of human SidT1 (AAI17223), made in E. coli (human) (UniProt Q9NXL6)
[3] = molecular target: MBP fusion of the ECD of human SidT2 (AAI14523), made in E. coli (human) (UniProt Q8NBJ9)

binding [1]: binds
binding [2]: binds
binding [3]: binds
Substance: chaperone GroEL (from UniProt P0A6F5 1-548)
